Test results reported in publication PMC10681173.
Results are given in words; binding and its absence hold for the method and conditions named. In cells and extracts the contact can be indirect. Some binding calls cover weakened binding; strength is not graded here.

By UniProt entry, the sequences of proteins in these tests, tags left out.
UniProt P73407: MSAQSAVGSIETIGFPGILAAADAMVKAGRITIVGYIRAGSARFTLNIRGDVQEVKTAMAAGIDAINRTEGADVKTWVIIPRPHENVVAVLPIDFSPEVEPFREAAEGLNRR

Biological target: CcmK4 from Synechocystis sp. PCC 6803 with GFP10 or GFP11 at the N-terminus (Synechocystis sp. PCC 6803) (UniProt P73407)
Test: split reporter; tripartite GFP in E. coli BL21(DE3) cells; single vector, POI-10 and POI-11 on a bicistronic mRNA under T7p, GFP1-9 independent; IPTG 10 uM from the start, 37°C; Fmax relative to the RMM reference

- binding: binds
Substance: CcmK4 from Synechocystis sp. PCC 6803 with GFP10 or GFP11 at the N-terminus (from UniProt P73407 1-112)
